This passage reports binding signal results from article PMC7819943, “Rice protein-binding microarrays: a tool to detect cis-acting elements near promoter regions in rice”.

By UniProt entry, the sequences of proteins in these tests, tags left out.
UniProt Q0JBA9, entry or part of it: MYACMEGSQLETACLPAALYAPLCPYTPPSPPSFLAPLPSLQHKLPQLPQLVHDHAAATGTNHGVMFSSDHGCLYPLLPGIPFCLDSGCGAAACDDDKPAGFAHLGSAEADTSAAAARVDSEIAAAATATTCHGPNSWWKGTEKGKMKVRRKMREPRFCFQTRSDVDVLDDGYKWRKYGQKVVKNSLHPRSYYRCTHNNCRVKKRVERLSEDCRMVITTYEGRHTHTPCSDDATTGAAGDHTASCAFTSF

The other results are listed elsewhere or left out.

The target of the assay is OsWRKY34 (Oryza sativa, UniProt Q0JBA9 1-250). The experiment in a line: protein-binding microarray (RPBM); PBS, 2% BSA, 51.3 ng/ul salmon testes DNA, 50 uM zinc acetate, 200 nM TF, 25 C, 1 h; high values mean tight binding. The settings on record: protein: recombinant; tags: N-terminal polyhistidine and DsRed monomer fusion (pET32a); label: CyDye5-dUTP incorporated in the synthesized complementary strand; 3' TTTTT single-stranded linker to array surface; dsDNA, one strand shown. The essentials: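 Transcription factors were each fused at the N-terminus to a polyhistidine tag plus DsRed and expressed in E. coli BL21-CodonPlus before Ni–NTA purification. Binding to a double-stranded custom Agilent array was carried out with 200 nM protein at 25 °C for 1 h in PBS, 2% BSA, salmon testes DNA and 50 µM zinc acetate. The binding signal is per-feature fluorescence intensity, in arbitrary units, on an Axon 4000B scanner.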
Turning to “GCTTTGGTCGTGGCGGTGGTGGCGCATTCGGTGGTGGCGCCGGAGTCACCTAGTGCAG”, the binding signal is 12500 fluorescence intensity (a.u.).

With “TACACACTACATACTCCATCGTTCGTTCTTCAGAGAGTACCGGAGTCACCTAGTGCAG”, the binding signal was 8320 fluorescence intensity (a.u.).

As for “GCCTCGTCCACTCCACCACGCCGCCGAAAGCCGCAACTCTCGGAGTCACCTAGTGCAG”, the binding signal was 9580 fluorescence intensity (a.u.).

“ACATCAAAACCACCATAAGCTCTATGTTGCACTTTTAACACGGAGTCACCTAGTGCAG”: the binding signal was 8180 fluorescence intensity (a.u.). The same measure for “CCATCACCATCTGTTCTAGTACTGTATTTGGTTCAGAGAACGGAGTCACCTAGTGCAG”: 8940 fluorescence intensity (a.u.); for “GATTGGCGTCCGCTTCTATTCATAGGTTTGCCGTCGGACGCGGAGTCACCTAGTGCAG”: 8360 fluorescence intensity (a.u.). The same measure for “CTGGCGCGCAGAACCGTTTGTTTCCGCCCTCTCTTTTTTCCGGAGTCACCTAGTGCAG”: 8670 fluorescence intensity (a.u.); for “GAGACTTTGCACGCTTAAGCCTTAAGCTTCTACTACCATTCGGAGTCACCTAGTGCAG”: 10100 fluorescence intensity (a.u.); for “TAGTATATACATGGGTGTTTGGGAGAGAGGGGCTAAACTTCGGAGTCACCTAGTGCAG”: 9540 fluorescence intensity (a.u.).

Regarding “ACCCTGCCATTACGCATCTCAACACACCATTAGTCCAGTCCGGAGTCACCTAGTGCAG”, the binding signal was 9540 fluorescence intensity (a.u.). As to “CCCGCTCGCTCTCGTGCTGTCCGCCGACCTCAGCTCGCTCCGGAGTCACCTAGTGCAG”, the binding signal is 10000 fluorescence intensity (a.u.). Next, “CCTACGACTCATTACATCCACACGCAAGCAAAATCTCACTCGGAGTCACCTAGTGCAG”: 8260 fluorescence intensity (a.u.); “CGCCTCGCCGTCTCAGTGTCGACAGTGTCCCCTCCCCTCACGGAGTCACCTAGTGCAG”: 9070 fluorescence intensity (a.u.); “GTCCACTCCCCGTTGATTTGATTTGTCTCGTAGCTGCAGCCGGAGTCACCTAGTGCAG”: 8380 fluorescence intensity (a.u.).

Consider “CTTCTGCTTTGGGAGGATGCTTTGTCTATCGTTTCCTAACCGGAGTCACCTAGTGCAG”, for which the binding signal was 9240 fluorescence intensity (a.u.). Next, “GGGAGTGGGCCGGCCCAGCTGAGAGGAGGGCGGGCGCGCGCGGAGTCACCTAGTGCAG”: 9320 fluorescence intensity (a.u.); “TCCCGTGTTCTTGTTCTTCTCTGGTGATCATCATCATCATCGGAGTCACCTAGTGCAG”: 8410 fluorescence intensity (a.u.); “CACACTAAAGTGCTTTTTTTTTTTTGGTTCTCGTTCATTTCGGAGTCACCTAGTGCAG”: 8250 fluorescence intensity (a.u.). The same measure for “ATGGTATAACCACTGTCCGTCCGAATCCGCTCCGTTTTCACGGAGTCACCTAGTGCAG”: 10200 fluorescence intensity (a.u.); for “TATCCTCTTCATTTTGAATTATTTGCCGTTTAATTTTATTCGGAGTCACCTAGTGCAG”: 8210 fluorescence intensity (a.u.); for “CCGAGCCACCCACCCGCCACCGCCGCCGCCGCCGCCGCTCCGGAGTCACCTAGTGCAG”: 12100 fluorescence intensity (a.u.). Next, “TTAATTATATGCTAATGGCTAACCTTATTTTACGTATCTTCGGAGTCACCTAGTGCAG”: 8180 fluorescence intensity (a.u.); “TATTTCTCGTTATAGTTTCTCGATCCATCGATGCAGGAACCGGAGTCACCTAGTGCAG”: 8440 fluorescence intensity (a.u.). As to “GCTATGAGATTTATATATTTTTTTGTCCTGGGCTTCTTTTCGGAGTCACCTAGTGCAG”, the binding signal is 9510 fluorescence intensity (a.u.). Next, “GTTACCGCCACTTCCGTCGGTATTACTCTGCCACGACCCGCGGAGTCACCTAGTGCAG”: 8610 fluorescence intensity (a.u.). The same measure for “GACCTCGCCTGCCGCCATCGTCGCTGACATCATCACCATCCGGAGTCACCTAGTGCAG”: 10400 fluorescence intensity (a.u.); for “ACTTGCAGTGTTTAACCATTCGTCTTATTCAAAAATTTTTCGGAGTCACCTAGTGCAG”: 8340 fluorescence intensity (a.u.). The same measure for “CATAAAGCCTATAAACCGGCTCAGTGACCGGTTCTTTTTTCGGAGTCACCTAGTGCAG”: 8920 fluorescence intensity (a.u.); for “TATCTCCTGTCTTTTACTTGCATGTTTTCAGGGCTCGGTTCGGAGTCACCTAGTGCAG”: 11900 fluorescence intensity (a.u.).

As for “AATTGGTTCTCGTAGTTTCTCGTTCTCAATCAATCATTCCCGGAGTCACCTAGTGCAG”, the binding signal is 10200 fluorescence intensity (a.u.). With “AGCACGATTCACCTCCAATTATTTTTTTTTGTCAGAGGCCCGGAGTCACCTAGTGCAG”, the binding signal was 8300 fluorescence intensity (a.u.).

On to “ACTCTTTTACCACTCATCCGATCACCAATTCACCACTACCCGGAGTCACCTAGTGCAG”, for which the binding signal is 9200 fluorescence intensity (a.u.).

Consider “GAAATGTCTGTACAATGAGGAATATTGGGTTATGCTAGCTCGGAGTCACCTAGTGCAG”, for which the binding signal was 8400 fluorescence intensity (a.u.). Next, “AATTTCGTGTGTTGGTCCTCAGCATACTACTACAGAACACCGGAGTCACCTAGTGCAG”: 8320 fluorescence intensity (a.u.). Next, “CATCGGTTTCTGACTTTCACCAGCTTCAACGTTGGCATCACGGAGTCACCTAGTGCAG”: 11400 fluorescence intensity (a.u.); “ACCCCTACCATTTGCCCCTATTGCTTTGAGCATGTGTTGACGGAGTCACCTAGTGCAG”: 9550 fluorescence intensity (a.u.). The same measure for “CTGCAAACAATCATGTACTCCAGCCAACATCATTTCCAGACGGAGTCACCTAGTGCAG”: 8400 fluorescence intensity (a.u.); for “GGGGAGGCGGAAGGCGGTGCGGGGAGGCGGCGCTCGCTGACGGAGTCACCTAGTGCAG”: 8620 fluorescence intensity (a.u.). Turning to “GCTCACTCTGTCGTTCTCTCTCTCCCATCCGGCGCGACGCCGGAGTCACCTAGTGCAG”, the binding signal is 11800 fluorescence intensity (a.u.). Next, “TTACGCATCACTTGGTATCTGAATCTCTTTTGCAGCAGTTCGGAGTCACCTAGTGCAG”: 10000 fluorescence intensity (a.u.).

Take “CACTTGGCTTGATCGATCCTATATATATACCAGCAACCATCGGAGTCACCTAGTGCAG”: the binding signal was 10400 fluorescence intensity (a.u.).

On to “GTCTTCTTCTCCAACATCACATAATGGTTTGTTATCTTCTCGGAGTCACCTAGTGCAG”, for which the binding signal is 8340 fluorescence intensity (a.u.). Take “CATCGAGTAGCCGCCGCCGCCACCTGGTGCTCGTGACGCCCGGAGTCACCTAGTGCAG”: the binding signal was 8670 fluorescence intensity (a.u.). Next, “GGTTTGTTTGTCAACCTCGGGGTGGTTGGGTACTTGGGTTCGGAGTCACCTAGTGCAG”: 11000 fluorescence intensity (a.u.); “CCAATTCAGGCTCCATGCTCTTATCCACAAACTGTCTATACGGAGTCACCTAGTGCAG”: 9100 fluorescence intensity (a.u.).

As to “CTTCGTTCCCGCGCGGCCACTCCTTCCACCACCACCTCCTCGGAGTCACCTAGTGCAG”, the binding signal was 9660 fluorescence intensity (a.u.). With “ACAGCCTATATACCTTTTTTATGTTCTCACATCCTGCTGGCGGAGTCACCTAGTGCAG”, the binding signal was 8070 fluorescence intensity (a.u.). Next, “ACCCGTTCTCACACTTGTCAATTTGTCATTCCAAATATGCCGGAGTCACCTAGTGCAG”: 9300 fluorescence intensity (a.u.); “TTTAACTATTTGCCACTTTTGTCTACGTGATGTGTCCGCGCGGAGTCACCTAGTGCAG”: 9440 fluorescence intensity (a.u.); “CCTCACATGATCCCCATTATTGTCATTTGCTTGTTTTCTTCGGAGTCACCTAGTGCAG”: 11900 fluorescence intensity (a.u.). The same measure for “TTCTTAATTATCTGTAGATCCTCTTCCTTATCTCTTGTACCGGAGTCACCTAGTGCAG”: 8050 fluorescence intensity (a.u.); for “TTTGATGAGTTGACTTCGTTGACCCAACAGTGATGGCCGACGGAGTCACCTAGTGCAG”: 11200 fluorescence intensity (a.u.); for “TTTTTTTTTCTCTCTCGTTTTCCCTCGGGCTACGCCTCTTCGGAGTCACCTAGTGCAG”: 8120 fluorescence intensity (a.u.). Next, “TAGCATTTCTACTTTTGATTCTATTTGTTTGTGTTGTTATCGGAGTCACCTAGTGCAG”: 11900 fluorescence intensity (a.u.).
